Test results taken from patent US8658647B2, “Integrin-linked kinase inhibitors” (The Ohio State University Research Foundation, priority 2010, dated 2014).
Some of these results come from one statement about several compounds together.

Assays:
[1] = tested on: SKBR3 human breast cancer cells; assay: MTT cell viability assay in SKBR3 cells; assay type: cell-based; settings: 24 h, 5% FBS
Experimental: (§1) Dose-dependent effects of compounds 4-9 in MCF-7 (upper panel) and SKBR3 (lower) cells after 24 h treatment in the presence of 5% FBS. Cell viability was assessed by MTT assay. Points, mean; bars, ±SD.
(§2) Compounds 4-9, which were screened previously in a prostate cancer cell line (FIG. 2), were evaluated for antiproliferative activity in MCF-7 and SKBR3 human breast cancer cells.

[2] = tested on: MCF-7 human breast cancer cells; assay: MTT cell viability assay in MCF-7 cells; assay type: cell-based; settings: 24 h, 5% FBS
Experimental: as §1, §2

SMILES	IC50, antiproliferative activity [1]	IC50, antiproliferative activity [2]
CC(C)NC(=O)c1cc(-c2ccc(-c3ccc(C(F)(F)F)cc3)cc2)n(-c2ccc(NC(=O)CCN)cc2)n1 [Compound 6, 1-(4-(3-aminopropanamido)phenyl)-N-isopropyl-5-(4′-(trifluoromethyl)-[1,1′-biphenyl]-4-yl)-1H-pyrazole-3-carboxamide]	compound 5 was the only compound among those tested that showed activity	compound 5 was the only compound among those tested that showed activity
CC(C)NC(=O)CCc1cc(-c2ccc(-c3ccc(C(F)(F)F)cc3)cc2)n(-c2ccc(NC(=O)CCN)cc2)n1 [Compound 9, 3-amino-N-(4-(3-(3-(isopropylamino)-3-oxopropyl)-5-(4′-(trifluoromethyl)-[1,1′-biphenyl]-4-yl)-1H-pyrazol-1-yl)phenyl)propanamide]	compound 5 was the only compound among those tested that showed activity	compound 5 was the only compound among those tested that showed activity
CCNC(=O)c1cc(-c2ccc(-c3ccc(C(F)(F)F)cc3)cc2)n(-c2ccc(NC(=O)CCN)cc2)n1 [Compound 5, 1-(4-(3-aminopropanamido)phenyl)-N-ethyl-5-(4′-(trifluoromethyl)-[1,1′-biphenyl]-4-yl)-1H-pyrazole-3-carboxamide]	compound 5 was the only compound among those tested that showed activity	compound 5 was the only compound among those tested that showed activity
CNC(=O)CCc1cc(-c2ccc(-c3ccc(C(F)(F)F)cc3)cc2)n(-c2ccc(NC(=O)CCN)cc2)n1 [Compound 7, 3-amino-N-(4-(3-(3-(methylamino)-3-oxopropyl)-5-(4′-(trifluoromethyl)-[1,1′-biphenyl]-4-yl)-1H-pyrazol-1-yl)phenyl)propanamide]	compound 5 was the only compound among those tested that showed activity	compound 5 was the only compound among those tested that showed activity
CNC(=O)c1cc(-c2ccc(-c3ccc(C(F)(F)F)cc3)cc2)n(-c2ccc(NC(=O)CCN)cc2)n1 [Compound 4, 1-(4-(3-aminopropanamido)phenyl)-N-methyl-5-(4′-(trifluoromethyl)-[1,1′-biphenyl]-4-yl)-1H-pyrazole-3-carboxamide]	compound 5 was the only compound among those tested that showed activity	compound 5 was the only compound among those tested that showed activity
CCNC(=O)CCc1cc(-c2ccc(-c3ccc(C(F)(F)F)cc3)cc2)n(-c2ccc(NC(=O)CCN)cc2)n1 [Compound 8, 3-amino-N-(4-(3-(3-(ethylamino)-3-oxopropyl)-5-(4′-(trifluoromethyl)-[1,1′-biphenyl]-4-yl)-1H-pyrazol-1-yl)phenyl)propanamide]	compound 5 was the only compound among those tested that showed activity	compound 5 was the only compound among those tested that showed activity
